Results: patent publication US8992886B2, “Cyclic peptide analogues for non-invasive imaging of pancreatic beta-cells” (Board of Regents, the University of Texas System, priority 2009, dated 2015)
Part of at least one peptide drawing is inferred or uncertain, most often the ends.

Test system: INS-1 (an insulinoma cell line)-embedded collagen beads
Test: Displacement binding to INS-1-embedded collagen beads (autoradiography)
Conditions: for binding decrease in presence of cold peptide: 500 nM cold peptide, radiolabeled DOTA-GLP1 conjugate 0.80-0.89 nM, RT 1 h

Row | SMILES | binding decrease in presence of cold peptide | absolute uptake relative to L-GLP-1 conjugate (INS-1-embedded beads)
1 | CC[C@H](C)[C@H](NC(=O)[C@H](Cc1ccccc1)NC(=O)[C@H](CCC(=O)O)NC(=O)[C@H](CCCCN)NC(=O)[C@H](C)NC(=O)[C@H](C)NC(=O)[C@H](CCC(N)=O)NC(=O)CNC(=O)[C@H](CCC(=O)O)NC(=O)[C@H](CC(C)C)NC(=O)[C@H](Cc1ccc(O)cc1)NC(=O)[C@H](CO)NC(=O)[C@H](CO)NC(=O)[C@@H](NC(=O)[C@H](CC(=O)O)NC(=O)[C@H](CO)NC(=O)[C@@H](NC(=O)[C@H](Cc1ccccc1)NC(=O)[C@@H](NC(=O)CNC(=O)[C@H](CCC(=O)O)NC(=O)[C@@H](C)NC(=O)[C@@H](N)Cc1c[nH]cn1)[C@@H](C)O)[C@@H](C)O)C(C)C)C(=O)N[C@@H](C)C(=O)N[C@@H](Cc1c[nH]c2ccccc12)C(=O)N[C@@H](CC(C)C)C(=O)N[C@H](C(=O)N[C@@H](CCCCN)C(=O)NCC(=O)N[C@@H](CCCNC(=N)N)C(=O)NCCCCCC(=O)N[C@@H](CSC1CC(=O)N(CCNC(=O)CN2CCN(CC(=O)O)CCN(CC(=O)O)CCN(CC(=O)O)CC2)C1=O)C(N)=O)C(C)C (stereo partly drawn) (64Cu complex, metal not drawn) [D-GLP-1, [D-Ala^8]GLP-1-Ahx-Cys] | ca. 5 times | about 4 times
2 | CC[C@H](C)[C@H](NC(=O)[C@H](Cc1ccccc1)NC(=O)[C@H](CCC(=O)O)NC(=O)[C@H](CCCCN)NC(=O)[C@H](C)NC(=O)[C@H](C)NC(=O)[C@H](CCC(N)=O)NC(=O)CNC(=O)[C@H](CCC(=O)O)NC(=O)[C@H](CC(C)C)NC(=O)[C@H](Cc1ccc(O)cc1)NC(=O)[C@H](CO)NC(=O)[C@H](CO)NC(=O)[C@@H](NC(=O)[C@H](CC(=O)O)NC(=O)[C@H](CO)NC(=O)[C@@H](NC(=O)[C@H](Cc1ccccc1)NC(=O)[C@@H](NC(=O)CNC(=O)[C@H](CCC(=O)O)NC(=O)[C@H](C)NC(=O)[C@@H](N)Cc1c[nH]cn1)[C@@H](C)O)[C@@H](C)O)C(C)C)C(=O)N[C@@H](C)C(=O)N[C@@H](Cc1c[nH]c2ccccc12)C(=O)N[C@@H](CC(C)C)C(=O)N[C@H](C(=O)N[C@@H](CCCCN)C(=O)NCC(=O)N[C@@H](CCCNC(=N)N)C(=O)NCCCCCC(=O)N[C@@H](CSC1CC(=O)N(CCNC(=O)CN2CCN(CC(=O)O)CCN(CC(=O)O)CCN(CC(=O)O)CC2)C1=O)C(N)=O)C(C)C (stereo partly drawn) (64Cu complex, metal not drawn) [L-GLP-1, [Ala^8]GLP-1-Ahx-Cys] | ca. 5 times | –
